Test results reported in the supplement of paper PMC8728848.
Some of the results follow.

How the values were obtained:
Assay in all cases: glycan array binding signal (z-score within array); higher = stronger binding
Details in all cases: glycan notation: IUPAC condensed, linker removed
[1] = target: Fuc(a1-2)Gal(b1-4)GlcNAc(b1-3)Gal(b1-4)GlcNAc(b1-3)Gal(b1-4)GlcNAc
Summary of the method: (§1)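 Glycan array binding is given as a within-array Z-score, which can be read as non-binding when negative. The arrays, 3228 of them, came from the Consortium for Functional Glycomics database and were retained only where the protein sequence was available. Z-scores were averaged across arrays of the same protein sequence at different concentrations or buffers and across linkers.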

[2] = target: Fuc(a1-2)Gal(b1-4)GlcNAc(b1-3)GalNAc
Summary of the method: as §1

[3] = target: Fuc(a1-2)Gal(b1-4)GlcNAc(b1-3)[Fuc(a1-2)Gal(b1-4)GlcNAc(b1-6)]GalNAc
Summary of the method: as §1

[4] = target: Fuc(a1-2)Gal(b1-4)GlcNAc(b1-3)[Fuc(a1-3)[Gal(b1-4)]GlcNAc(b1-6)]Gal(b1-4)Glc
Summary of the method: as §1

[5] = target: Fuc(a1-2)Gal(b1-4)GlcNAc(b1-6)GalNAc
Summary of the method: as §1

[6] = target: Fuc(a1-2)Gal(b1-4)GlcNAc6S
Summary of the method: as §1

[7] = target: Fuc(a1-2)Gal(b1-4)[Fuc(a1-3)]GlcNAc
Summary of the method: as §1

[8] = target: Fuc(a1-2)Gal(b1-4)[Fuc(a1-3)]GlcNAc(b1-2)Man(a1-3)[Fuc(a1-2)Gal(b1-4)[Fuc(a1-3)]GlcNAc(b1-2)Man(a1-6)]Man(b1-4)GlcNAc(b1-4)[Fuc(a1-6)]GlcNAc
Summary of the method: as §1

[9] = target: Fuc(a1-2)Gal(b1-4)[Fuc(a1-3)]GlcNAc(b1-2)[Fuc(a1-2)Gal(b1-4)[Fuc(a1-3)]GlcNAc(b1-4)]Man(a1-3)[Fuc(a1-2)Gal(b1-4)[Fuc(a1-3)]GlcNAc(b1-2)Man(a1-6)]Man(b1-4)GlcNAc(b1-4)GlcNAc
Summary of the method: as §1

[10] = target: Fuc(a1-2)Gal(b1-4)[Fuc(a1-3)]GlcNAc(b1-3)Gal(b1-4)[Fuc(a1-3)]GlcNAc
Summary of the method: as §1

[11] = target: Fuc(a1-2)Gal(b1-4)[Fuc(a1-3)]GlcNAc(b1-3)Gal(b1-4)[Fuc(a1-3)]GlcNAc(b1-3)Gal(b1-4)[Fuc(a1-3)]GlcNAc
Summary of the method: as §1

[12] = target: Fuc(a1-2)Gal(b1-4)[Fuc(a1-3)]GlcNAc(b1-3)GalNAc
Summary of the method: as §1

[13] = target: Fuc(a1-2)Gal(b1-4)[Fuc(a1-3)]GlcNAc(b1-3)[Neu5Ac(a2-6)Gal(b1-4)GlcNAc(b1-6)]Gal(b1-4)Glc
Summary of the method: as §1

[14] = target: Fuc(a1-2)Gal3S(b1-4)GlcNAc
Summary of the method: as §1

[15] = target: Fuc(a1-2)Gal6S(b1-3)GlcNAc
Summary of the method: as §1

[16] = target: Fuc(a1-2)Gal6S(b1-3)GlcNAc6S
Summary of the method: as §1

[17] = target: Fuc(a1-2)Gal6S(b1-4)Glc
Summary of the method: as §1

[18] = target: Fuc(a1-2)Gal6S(b1-4)Glc6S
Summary of the method: as §1

[19] = target: Fuc(a1-2)[Gal(a1-3)]Gal
Summary of the method: as §1

[20] = target: Fuc(a1-2)[Gal(a1-3)]Gal(b1-3)GalNAc
Summary of the method: as §1

[21] = target: Fuc(a1-2)[Gal(a1-3)]Gal(b1-3)GalNAc(b1-3)Gal(a1-4)Gal(b1-4)Glc
Summary of the method: as §1

[22] = target: Fuc(a1-2)[Gal(a1-3)]Gal(b1-3)GlcNAc
Summary of the method: as §1

[23] = target: Fuc(a1-2)[Gal(a1-3)]Gal(b1-3)GlcNAc(b1-2)Man(a1-3)[Fuc(a1-2)[Gal(a1-3)]Gal(b1-3)GlcNAc(b1-2)Man(a1-6)]Man(b1-4)GlcNAc(b1-4)GlcNAc
Summary of the method: as §1

[24] = target: Fuc(a1-2)[Gal(a1-3)]Gal(b1-3)GlcNAc(b1-2)Man(a1-3)[Fuc(a1-2)[Gal(a1-3)]Gal(b1-3)GlcNAc(b1-2)Man(a1-6)]Man(b1-4)GlcNAc(b1-4)[Fuc(a1-6)]GlcNAc
Summary of the method: as §1

[25] = target: Fuc(a1-2)[Gal(a1-3)]Gal(b1-3)GlcNAc(b1-3)GalNAc
Summary of the method: as §1

[26] = target: Fuc(a1-2)[Gal(a1-3)]Gal(b1-3)GlcNAc(b1-6)GalNAc
Summary of the method: as §1

[27] = target: Fuc(a1-2)[Gal(a1-3)]Gal(b1-4)Glc
Summary of the method: as §1

[28] = target: Fuc(a1-2)[Gal(a1-3)]Gal(b1-4)GlcNAc
Summary of the method: as §1

[29] = target: Fuc(a1-2)[Gal(a1-3)]Gal(b1-4)GlcNAc(b1-2)Man
Summary of the method: as §1

[30] = target: Fuc(a1-2)[Gal(a1-3)]Gal(b1-4)GlcNAc(b1-2)Man(a1-3)[Fuc(a1-2)[Gal(a1-3)]Gal(b1-4)GlcNAc(b1-2)Man(a1-6)]Man(b1-4)GlcNAc(b1-4)GlcNAc
Summary of the method: as §1

B1: Mermaid2 (Stilbonema majum) (protein)
chain: MGSSHHHHHHSSGLVPRGSHMAASGWLRSPQGTVVKLYRRSLSWSKADEFCKDVDGRLVVDRTADMHLFLIKNVLKEKKSRVWVGLRRTAPHSRTWIWSDGTRQNEDDLNTNLWLRDEPNDAAGEEECALFMYSPWEKAWGLNDYLCRGGCRSYQFICEKGIR
**Q.** What does the source list for B1?
**A.** glycan array binding signal (z-score) [1]: -0.772; glycan array binding signal (z-score) [2]: 0.031; glycan array binding signal (z-score) [3]: 0.788; glycan array binding signal (z-score) [4]: -0.376; glycan array binding signal (z-score) [5]: -0.181; glycan array binding signal (z-score) [6]: 0.035; glycan array binding signal (z-score) [7]: 0.558; glycan array binding signal (z-score) [8]: 0.062; glycan array binding signal (z-score) [9]: -0.12; glycan array binding signal (z-score) [10]: -0.77; glycan array binding signal (z-score) [11]: -0.217; glycan array binding signal (z-score) [12]: -0.123; glycan array binding signal (z-score) [13]: -0.749; glycan array binding signal (z-score) [14]: -0.786; glycan array binding signal (z-score) [15]: -0.388; glycan array binding signal (z-score) [16]: 4.48; glycan array binding signal (z-score) [17]: -0.715; glycan array binding signal (z-score) [18]: -0.424; glycan array binding signal (z-score) [19]: -0.319; glycan array binding signal (z-score) [20]: 0.737; glycan array binding signal (z-score) [21]: -0.308; glycan array binding signal (z-score) [22]: -0.651; glycan array binding signal (z-score) [23]: -0.483; glycan array binding signal (z-score) [24]: 0.121; glycan array binding signal (z-score) [25]: -0.082; glycan array binding signal (z-score) [26]: -0.026; glycan array binding signal (z-score) [27]: -0.23; glycan array binding signal (z-score) [28]: -0.824; glycan array binding signal (z-score) [29]: -0.059; glycan array binding signal (z-score) [30]: -0.458
